Results taken from paper PMC9587022 (2022).
These are yes or no findings as the source states them, for the method shown. In cells and extracts the contact can be indirect. A yes stands for co-enrichment or nearness to the bait. Other partners may have been found.

By UniProt entry, the sequences of proteins in these tests, tags left out.
UniProt P16788: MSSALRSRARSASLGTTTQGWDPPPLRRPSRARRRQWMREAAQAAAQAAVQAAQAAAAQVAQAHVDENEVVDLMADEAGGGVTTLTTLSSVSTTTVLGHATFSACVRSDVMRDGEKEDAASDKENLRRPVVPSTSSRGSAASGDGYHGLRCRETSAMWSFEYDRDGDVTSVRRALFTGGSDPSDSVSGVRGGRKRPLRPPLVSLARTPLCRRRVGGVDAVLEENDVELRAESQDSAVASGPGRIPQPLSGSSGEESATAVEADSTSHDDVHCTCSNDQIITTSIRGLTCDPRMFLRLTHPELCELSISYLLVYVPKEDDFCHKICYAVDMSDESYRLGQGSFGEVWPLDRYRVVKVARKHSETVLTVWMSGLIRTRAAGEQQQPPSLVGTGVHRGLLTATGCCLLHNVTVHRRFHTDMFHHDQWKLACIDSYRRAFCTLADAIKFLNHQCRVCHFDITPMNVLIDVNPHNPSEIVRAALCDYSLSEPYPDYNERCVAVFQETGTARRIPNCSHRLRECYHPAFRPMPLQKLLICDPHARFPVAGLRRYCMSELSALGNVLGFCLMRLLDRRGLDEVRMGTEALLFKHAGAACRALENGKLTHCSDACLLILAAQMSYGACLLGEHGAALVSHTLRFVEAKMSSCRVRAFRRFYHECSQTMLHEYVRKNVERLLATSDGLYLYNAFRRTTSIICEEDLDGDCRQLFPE

B1: 14-3-3 θ, endogenous (protein, UniProt P27348 1-245)
chain: MEKTELIQKAKLAEQAERYDDMATCMKAVTEQGAELSNEERNLLSVAYKNVVGGRRSAWRVISSIEQKTDTSDKKLQLIKDYREKVESELRSICTTVLELLDKYLIANATNPESKVFYLKMKGDYFRYLAEVACGDDRKQTIDNSQGAYQEAFDISKKEMQPTHPIRLGLALNFSVFYYEILNNPELACTLAKTAFDEAIAELDTLNEDSYKDSTLIMQLLRDNLTLWTSDSAGEECDAAEGAEN
B2: 14-3-3 protein eta, endogenous (protein, UniProt Q04917 1-246)
chain: MGDREQLLQRARLAEQAERYDDMASAMKAVTELNEPLSNEDRNLLSVAYKNVVGARRSSWRVISSIEQKTMADGNEKKLEKVKAYREKIEKELETVCNDVLSLLDKFLIKNCNDFQYESKVFYLKMKGDYYRYLAEVASGEKKNSVVEASEAAYKEAFEISKEQMQPTHPIRLGLALNFSVFYYEIQNAPEQACLLAKQAFDDAIAELDTLNEDSYKDSTLIMQLLRDNLTLWTSDQQDEEAGEGN
B3: Heterogeneous nuclear ribonucleoprotein H3 (protein, UniProt P31942 1-346)
chain: MDWVMKHNGPNDASDGTVRLRGLPFGCSKEEIVQFFQGLEIVPNGITLTMDYQGRSTGEAFVQFASKEIAENALGKHKERIGHRYIEIFRSSRSEIKGFYDPPRRLLGQRPGPYDRPIGGRGGYYGAGRGSMYDRMRRGGDGYDGGYGGFDDYGGYNNYGYGNDGFDDRMRDGRGMGGHGYGGAGDASSGFHGGHFVHMRGLPFRATENDIANFFSPLNPIRVHIDIGADGRATGEADVEFVTHEDAVAAMSKDKNNMQHRYIELFLNSTPGGGSGMGGSGMGGYGRDGMDNQGGYGSVGRMGMGNNYSGGYGTPDGLGGYGRGGGGSGGYYGQGGMSGGGWRGMY
B4: DnaJ homolog subfamily C member 7 (protein, UniProt Q99615 1-494)
chain: MAAAAECDVVMAATEPELLDDQEAKREAETFKEQGNAYYAKKDYNEAYNYYTKAIDMCPKNASYYGNRAATLMMLGRFREALGDAQQSVRLDDSFVRGHLREGKCHLSLGNAMAACRSFQRALELDHKNAQAQQEFKNANAVMEYEKIAETDFEKRDFRKVVFCMDRALEFAPACHRFKILKAECLAMLGRYPEAQSVASDILRMDSTNADALYVRGLCLYYEDCIEKAVQFFVQALRMAPDHEKACIACRNAKALKAKKEDGNKAFKEGNYKLAYELYTEALGIDPNNIKTNAKLYCNRGTVNSKLRKLDDAIEDCTNAVKLDDTYIKAYLRRAQCYMDTEQYEEAVRDYEKVYQTEKTKEHKQLLKNAQLELKKSKRKDYYKILGVDKNASEDEIKKAYRKRALMHHPDRHSGASAEVQKEEEKKFKEVGEAFTILSDPKKKTRYDSGQDLDEEGMNMGDFDPNNIFKAFFGGPGGFSFEASGPGNFFFQFG

Biological target: Carboxy-terminally Halo-tagged UL97 (pFC14a-HA-UL97 WT) (human cytomegalovirus (HCMV)) (UniProt P16788)
Test: affinity purification with mass spectrometry; C-terminally Halo-tagged UL97 or Halo alone transiently expressed in HEK-293T; lysate on HaloLink beads, 1 h bead incubation; eluted with TEV protease; LC-MS/MS (Orbitrap Elite); two biological replicates

Row | Binder | binding
1 | B1 | binds
2 | B2 | binds
3 | B3 | binds
4 | B4 | binds
